Data reported in the supplement of paper PMC10689618.
Where a name gives a salt, the structure may show the parent alone. The list shows a part of the results. Many values rest on one well or one pass, so single values are uncertain.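 Labelled rat cortical synaptosomes were engulfed by primary human fetal astrocytes. Engulfment equaled a red/green ratio, corrected for calcein live-cell signal and normalized to the plate median. Compounds were toxic when calcein dropped over 30%, and reduced phagocytosis when below 70% of the median above 5 µM.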

What was measured:
[1] = test system: Human fetal astrocytes; test: loss of total cells relative to no-compound high-control median (toxicity); higher = more toxic (fewer cells); conditions: 24 h
[2] = test system: Human fetal astrocytes; test: synaptosome phagocytosis (pHrodo/calcein intensity ratio) relative to plate median of data wells; higher = more phagocytosis; conditions: 24 h

Row | Structure (SMILES) | loss of total cells ([1]; 1.39 µM) | loss of total cells ([1]; 2.78 µM) | loss of total cells ([1]; 5.56 µM) | loss of total cells ([1]; 11.11 µM) | loss of total cells ([1]; 22.22 µM) | synaptosome phagocytosis ([2]; 1.39 µM) | synaptosome phagocytosis ([2]; 2.78 µM) | synaptosome phagocytosis ([2]; 5.56 µM) | synaptosome phagocytosis ([2]; 11.11 µM) | synaptosome phagocytosis ([2]; 22.22 µM)
1 | C=Cc1c(C)c2cc3[nH]c(cc4nc(cc5nc(cc1[nH]2)C(C)=C5CCC(=O)O)C(CCC(=O)O)=C4C)c(C)c3C=C | 28.5% | -0.4% | 17.4% | 23.8% | 33.3% | 88.7% | 110% | 117% | 119% | 121%
2 | O=C(O)c1cc(O)c2c(c1)[C@@H]([C@H]1c3cc(C(=O)O)cc(O)c3C(=O)c3c(O[C@@H]4O[C@H](CO)[C@@H](O)[C@H](O)[C@H]4O)cccc31)c1cccc(O[C@@H]3O[C@H](CO)[C@@H](O)[C@H](O)[C@H]3O)c1C2=O | -15.6% | 9% | 17.6% | 20.9% | 21.5% | 107% | 123% | 147% | 110% | 154%
3 | CCOc1ccc2ccccc2c1C(=O)N[C@@H]1C(=O)N2[C@@H]1SC(C)(C)[C@@H]2C(=O)O | -30.7% | -25.3% | 1.5% | -2.3% | 12.5% | 109% | 101% | 122% | 94.6% | 117%
4 | C[C@@H]1NC(=O)[C@@H](N)CNC(=O)[C@H](C2CCNC(=N)N2)NC(=O)/C(=C/NC(N)=O)NC(=O)[C@H](CNC(=O)CC(N)CCCN)NC1=O.N=C1NCC[C@H]([C@@H]2NC(=O)/C(=C/NC(N)=O)NC(=O)[C@H](CNC(=O)C[C@@H](N)CCCN)NC(=O)[C@H](CO)NC(=O)[C@@H](N)CNC2=O)N1 | -2.5% | 21.6% | -2.7% | -17.2% | -22.7% | 101% | 118% | 116% | 155% | 118%
5 | O=c1c(-c2ccc(O)cc2)coc2c([C@@H]3O[C@H](CO)[C@@H](O)[C@H](O)[C@H]3O)c(O)ccc12 | -18.9% | 8.3% | -14.7% | 15.5% | 13.3% | 116% | 107% | 127% | 127% | 108%
6 | C=CC(C1=CC(=O)C(OC)=CC1=O)c1ccc(O)cc1 (stereo not given) | 33% | 8.6% | -8.4% | 54.2% | 35.2% | 181% | 127% | 76.7% | 130% | 66.9%
7 | C=C1C[C@]23C[C@@]1(O)CC[C@H]2[C@@]12C=C[C@H](O)[C@@](C)(C(=O)O1)[C@H]2[C@@H]3C(=O)O | -3.3% | -4.7% | 29% | 46.5% | 1.1% | 121% | 95.2% | 118% | 128% | 103%
8 | Oc1ccc(/C=C/c2cc(O)cc(O)c2)cc1 [5-[2-(4-hydroxyphenyl)vinyl]-1,3-benzenediol] | -36.1% | -9% | 21.2% | 10.8% | 15.6% | 86.7% | 91.5% | 120% | 114% | 99.3%
9 | COC1=CC(=O)C(O)=C/C1=C\C=C\c1ccccc1 | -12.7% | 10% | 42.7% | 48.4% | 37.4% | 91.3% | 93.9% | 98.4% | 12.6% | 25.9%
10 | OC[C@H]1O[C@@H](O[C@@H]2[C@@H](CO)OC(O)(CO)[C@H]2O)[C@H](O)[C@@H](O)[C@H]1O (mixture of isomers) | 6.2% | -30.8% | 10.5% | -7.8% | 37.4% | 104% | 95.4% | 92.8% | 99.1% | 116%
11 | NC(Cn1ccc(=O)c(O)c1)C(=O)O (stereo not given) | 17.7% | 11.2% | 18.8% | -2.9% | 15.9% | 79.3% | 125% | 162% | 75.9% | 123%
12 | O=C1C=CC(=C(c2ccc(O)cc2)c2ccc(O)cc2)C=C1 | 11.2% | 10.5% | 7.2% | 2.1% | 3.8% | 106% | 108% | 99.7% | 154% | 124%
13 | CC(CCc1ccc(O)cc1)NCCc1ccc(O)c(O)c1 (stereo not given) | -33.9% | 31.7% | 6.8% | 27.2% | 16.5% | 56.6% | 105% | 98.4% | 74.5% | 86.5%
14 | COc1ccc(-c2cc(=O)c3c(OC)c(OC)c(OC)cc3o2)cc1OC | 0.8% | -4% | 9.5% | 23% | 20.7% | 137% | 108% | 138% | 97.3% | 94.3%
15 | CCN(CCO)CCCC(C)Nc1ccnc2cc(Cl)ccc12 (stereo not given) | -10.8% | -20.4% | 0.9% | -7% | 22.1% | 105% | 80.2% | 106% | 107% | 103%
16 | Cc1nnc(NS(=O)(=O)c2ccc(N)cc2)s1 | 5.6% | -16.6% | -20.9% | 3.7% | -20.4% | 123% | 132% | 114% | 102% | 106%
17 | Cc1cc(C)nc(NS(=O)(=O)c2ccc(N)cc2)n1 | 3.9% | -25.4% | -3.5% | 6.6% | -20.4% | 123% | 124% | 129% | 124% | 120%
18 | COc1ccc(-c2oc3ccccc3c(=O)c2OC)cc1 | -27% | -12.6% | -2.9% | -6.1% | -13.3% | 87.7% | 82.5% | 92.6% | 88.2% | 98%
19 | COC(=O)[C@@H]1OC(=O)C2OC23[C@@]1(C)CCC1[C@@]2(C)CCC(=O)C(C)(C)C2C[C@@H](OC(C)=O)[C@]13C (stereo not given in full) | 5.4% | -15.3% | -6.1% | 32.3% | -16.7% | 132% | 87.3% | 95.6% | 96.3% | 70.4%
20 | CC(=O)[C@@]1(O)CC[C@H]2[C@@H]3C[C@H](C)C4=CC(=O)C=C[C@]4(C)[C@@]3(F)[C@@H](O)C[C@@]21C | -6.8% | -28.8% | -8.4% | -13% | 17.9% | 106% | 111% | 128% | 110% | 128%

Two compounds drawn at random from those above, as already listed:
Row | Structure (SMILES) | loss of total cells ([1]; 1.39 µM) | loss of total cells ([1]; 2.78 µM) | loss of total cells ([1]; 5.56 µM) | loss of total cells ([1]; 11.11 µM) | loss of total cells ([1]; 22.22 µM) | synaptosome phagocytosis ([2]; 1.39 µM) | synaptosome phagocytosis ([2]; 2.78 µM) | synaptosome phagocytosis ([2]; 5.56 µM) | synaptosome phagocytosis ([2]; 11.11 µM) | synaptosome phagocytosis ([2]; 22.22 µM)
16 | Cc1nnc(NS(=O)(=O)c2ccc(N)cc2)s1 | 5.6% | -16.6% | -20.9% | 3.7% | -20.4% | 123% | 132% | 114% | 102% | 106%
9 | COC1=CC(=O)C(O)=C/C1=C\C=C\c1ccccc1 | -12.7% | 10% | 42.7% | 48.4% | 37.4% | 91.3% | 93.9% | 98.4% | 12.6% | 25.9%

Further results follow:

Row | Structure (SMILES) | loss of total cells ([1]; 1.39 µM) | loss of total cells ([1]; 2.78 µM) | loss of total cells ([1]; 5.56 µM) | loss of total cells ([1]; 11.11 µM) | loss of total cells ([1]; 22.22 µM) | synaptosome phagocytosis ([2]; 1.39 µM) | synaptosome phagocytosis ([2]; 2.78 µM) | synaptosome phagocytosis ([2]; 5.56 µM) | synaptosome phagocytosis ([2]; 11.11 µM) | synaptosome phagocytosis ([2]; 22.22 µM)
21 | Cc1cc(C)cc(OCC2CNC(=O)O2)c1 (stereo not given) | -5.8% | -5.8% | -0.9% | 16.4% | 4.5% | 110% | 109% | 90.1% | 101% | 111%
22 | CCOC(=O)[C@H](CCc1ccccc1)N[C@@H](C)C(=O)N1CCC[C@H]1C(=O)O | -33.2% | -15.5% | -2.7% | -20.3% | 11.9% | 100% | 94.1% | 86.4% | 101% | 82.3%
23 | CC1=C2C(O)C(=O)OC3CC4C(C)(C)C(=O)C=C[C@]4(C)C(CC1)[C@]23C (stereo not given in full) | -12% | 5.3% | 30.5% | 40.6% | 4.1% | 73.4% | 61.8% | 143% | 123% | 136%
24 | N[C@H]1C(O)O[C@H](CO)[C@@H](O)[C@@H]1O (stereo not given in full) | 5% | -16.6% | 3.5% | -0.9% | 21% | 129% | 116% | 140% | 114% | 120%
25 | N=C(N)N1CCc2ccccc2C1 | -27.4% | -11.3% | -8.1% | -24.2% | -18.1% | 74.4% | 90.9% | 92.6% | 90.7% | 93%
26 | COc1c(OC)c2occc2c2oc(=O)ccc12 | -13.4% | 6.6% | -18.3% | 38.7% | 9.3% | 99.7% | 108% | 79.9% | 106% | 115%
27 | c1ccc2c(CC3=NCCN3)cccc2c1 | -59.8% | -25.3% | -4.5% | -19.5% | 1.1% | 108% | 108% | 101% | 83.9% | 97.9%
28 | O=C(/C=C/c1ccccc1)c1ccc(O)cc1 | -27.9% | 9.3% | -3.8% | -3.9% | 7% | 78.1% | 92.1% | 109% | 85.5% | 44.6%
29 | Oc1c(Cl)cc(Cl)cc1Sc1cc(Cl)cc(Cl)c1O | 0% | -8.8% | 2.1% | 12.5% | 38% | 110% | 94.9% | 103% | 97.5% | 54.8%
30 | O=C(O)[C@H]1/C(=C/CO)O[C@@H]2CC(=O)N21 | -28.2% | -30.2% | 11.8% | 23.9% | 2.8% | 87.4% | 111% | 123% | 107% | 103%
31 | Nc1nc(N)c2nc(-c3ccccc3)c(N)nc2n1 [Triamterene] | -8.6% | -13.9% | -2.8% | -14.7% | 14.3% | 111% | 115% | 124% | 95.3% | 118%
32 | O=C1O[C@H](CO)[C@@H](O)[C@H](O)[C@H]1O | 10.8% | -9.5% | -0.3% | 16.4% | -12.5% | 80.9% | 110% | 97.3% | 94.1% | 87.8%
33 | CN(C/C=C/C#CC(C)(C)C)Cc1cccc2ccccc12 | -20.7% | -8.2% | 3.9% | 2.3% | 51.6% | 111% | 102% | 87% | 129% | 47%
34 | CC(=O)OC1CC2(C)C(C(C)=O)CCC2C2CCC3=CC(=O)CCC3(C)C12 (stereo not given) | -23% | 2.5% | -8.8% | 16.9% | -4.4% | 57.3% | 107% | 93.9% | 110% | 85.9%
35 | CN1C(=O)OC(C)(C)C1=O | -23.4% | -36.5% | 0% | 4.3% | 3.4% | 132% | 119% | 110% | 103% | 134%
36 | CC(=O)OCC(=O)[C@@]1(O)CC[C@H]2[C@@H]3CCC4=CC(=O)CC[C@]4(C)[C@H]3C(=O)C[C@@]21C | -5.6% | -26.8% | -24.4% | -8.4% | -8.2% | 125% | 119% | 149% | 90.7% | 100%
37 | CCN(CC)CCOc1ccc(C(=C(Cl)c2ccccc2)c2ccccc2)cc1 | 2.1% | 23.4% | 23.7% | 85.6% | 101% | 90.4% | 72.4% | 60.9% | 13.9% | 0%
38 | CC(C)[C@@H](C)/C=C/[C@@H](C)[C@H]1CC[C@H]2C3=CC=C4C[C@@H](O)CC[C@]4(C)[C@H]3CC[C@]12C [Ergosterol] | -2.5% | 5.3% | -7.6% | 36.8% | 17.4% | 83.4% | 118% | 75.5% | 129% | 124%
39 | OC[C@H]1O[C@H](OCC2O[C@@H](O)[C@H](O)[C@@H](O)[C@@H]2O)[C@H](O)[C@@H](O)[C@H]1O (stereo not given in full) | -1.1% | -8.3% | 3.6% | 0.4% | -10.6% | 110% | 68.6% | 86.3% | 97.6% | 46.1%
40 | CN1Cc2c(N)cccc2C(c2ccccc2)C1 (stereo not given) [Nomifensine maleate] | 24.2% | -38.1% | 14.3% | -1% | 4.7% | 123% | 96.9% | 115% | 57.1% | 101%
